PubChem BioAssay AID504444 (National Center for Advancing Translational Sciences (NCATS), 2011)
About 7,500 (2.1%) of roughly 360,000 compounds were called active. This list was built around the results that the source calls inconclusive (neither active nor inactive); the mix of calls is not that of the screen. Calls come from the whole dose curve; as a rule, active = well fitted inhibition curve with a large enough effect; inconclusive = small, poorly fitted or top-dose-only effect, or effect the other way; inactive = flat fitted curve, though single readings scatter. A potency beside an inconclusive call is a rough fit, not a confirmed value.

experiment: Nrf2 qHTS screen for inhibitors; conditions: A549 ARE-Fluc reporter, luciferase luminescence, 18-24 h; series mostly up to 46 µM; note: nearly all actives have a fitted effect of over 60% in size
Excerpt: NIH Molecular Libraries Probe Production Network [MLPCN]
NIH Chemical Genomics Center [NCGC]
Assay Provider: Shyam Biswal, Johns Hopkins University
Nrf2 is a transcription factor that maintains cellular redox homoestasis and protects cells from xenobiotics. Nrf2 binds to the antioxidant response element (ARE) to induce gene expression of a broad spectrum of genes that encode for antioxidants. […] Finding a small molecule that act as an inhibitor of Nrf2 function would represent a novel therapeutic target that could lead to improvement in survival of patients undergoing chemo- and/or radio- therapy.
This is the Nrf2 activity measured in the luminescent read.
1. Shibata, T., et al., Genetic Alteration of Keap1 Confers Constitutive Nrf2 Activation and Resistance to Chemotherapy in Gallbladder Cancer. Gastroenterology, 2008.
2. Sjoblom, T., et al., The consensus coding sequences of human breast and colorectal cancers. Science, 2006. 314(5797): p. 268-74.
NCGC Assay Protocol Summary:
A concentration-response assay was performed with A549 ARE_Fluc cells which are suspended in 5% FBS OPTI-MEM. Five uL were dispensed into 1536-well white TC-treated plate using the Kalypsys dispenser to achieve a density of 5000 cells/well in all columns except column 1. The plate is incubated at 37deg C at 5% CO2 for 2 hours before 23 nL of compounds are added with the Kalypsys pin tool equipped with a 1,536-pin array containing 10-nL slotted pins (FP1S10, 0.457-mm diameter, 50.8 mm long; V&P Scientific). The control compounds Budesonide and Staurosporine are both added at a concentration of 2mM and Budesonide is also added as a 1:10 titration, starting at 200uM, to achieve dose-response. After an 18-24 hour incubation at 37deg C at 5% CO2, 5ul of medium is added to column 1. Afterwards 1ul of 5x of CellTiter-Fluor (Promega) is added to every well. The plate is then incubated at 37deg C at 5% CO2 for 30 minutes before they are read on the ViewLux (Perkin Elmer) for a fluorescent read Ex=405(10)/Em=525(10) for a 3 second exposure, 2x binning, and high gain. Then 3 uL of 3x BugLite is dispensed into all wells and the plate is incubated at ambient room temperature for 15 minutes. Afterwards another ViewLux read is performed using the clear filter to get a luminescent read with the settings of 40 second exposure, 2x binning, and high gain. Cytotoxicity is assessed through the first fluorescent read and then biochemical activity against Nrf2 is measured in the luminescent read.
Potency is the fitted concentration of half-maximal effect.

SMILES	Potency
O=c1[nH]c2ccc(NS(=O)(=O)c3ccc([N+](=O)[O-])cc3)cc2[nH]1	inconclusive: 1.16 µM [falling, full curve]
NC(=O)NC(=O)C(c1ccccc1)N1CCN(S(=O)(=O)Cc2ccccc2)CC1 (configuration not stated)	inactive
CCOC(=O)c1sc2nc(SCC(=O)N(CC)CC)n(CCCN3CCCC3=O)c(=O)c2c1C	inconclusive: 2.59 µM [falling, partial curve, poor fit]
Cc1ccccc1OCCn1cc(C(=S)N2CCN(C)CC2)c2ccccc21	inconclusive: 29.1 µM [falling, single point]
CC(=O)c1c(C)oc2ccc(N(C(C)=O)S(=O)(=O)c3cccc4cccnc34)cc12	active: 18.4 µM
CC(=O)c1c(C(C)=O)c(C)n(-c2nc(-c3ccccc3)c(C)s2)c1C	inconclusive: 29.1 µM [falling, single point]
Cc1ccc(C(C(=O)NCc2ccco2)N(C(=O)CNC(=O)c2cccs2)c2ccc(C)cc2C)cc1 (configuration not stated)	inconclusive: 25.9 µM [falling, partial curve, poor fit]
CSc1ccc(CC(=O)N2CCC(n3nccc3NC(=O)C3CC3)CC2)cc1	inconclusive: 23.1 µM [activator, partial curve, poor fit]
O=C(Nc1ccc(Br)cc1)NC1CCCCCCC1	inconclusive: 6.51 µM [activator, single point]
COc1ccc(/C=N/Nc2ncc(Br)cn2)c(OC)c1	inconclusive: 0.326 µM [activator, partial curve, poor fit]
COc1ccc(C(=O)Nc2nc(CC(=O)NCCc3ccccc3OC)cs2)cc1	inconclusive: 1.16 µM [activator, full curve, poor fit]
Cc1ccc(C(C)(c2ccc(N)cc2)c2ccc(N)cc2)cc1	inconclusive: 29.1 µM [activator, single point]
CNC(=O)C1(C(F)(F)F)C/C(=C/CCO)CCCO1 (configuration not stated)	inactive
COc1ccccc1C1c2c(-c3ccc(Cl)cc3)n[nH]c2C(=O)N1c1ccc(C)cc1 (configuration not stated)	inconclusive: 29.1 µM [falling, single point]
COc1ccc2c(C)nc(Nc3nc(C)c(C)c(=O)[nH]3)nc2c1	inconclusive: 29.1 µM [falling, single point]
COc1ccc(NC(=O)C2=CC(c3ccco3)=NS(=O)(=O)N2C)cc1	inconclusive: 20.6 µM [falling, single point]
O=C(NCC1CCCO1)c1nn2c(C(F)(F)F)cc(-c3ccc(Br)o3)nc2c1Br (configuration not stated)	inconclusive: 1.64 µM [falling, full curve, poor fit]
Cc1ccccc1S(=O)(=O)Cc1ccc(C(=O)N2CCN(c3cccc(Cl)c3)CC2)o1	active: 18.4 µM
COc1ccc(-n2ncc3c(NCC4CCCO4)ncnc32)cc1 (configuration not stated)	inconclusive: 3.66 µM [activator, full curve]
NS(=O)(=O)c1ccc(NNC(=O)c2ccc(Br)o2)c([N+](=O)[O-])c1	inconclusive: 2.59 µM [falling, partial curve, poor fit]
CCc1ccc(-n2cc(-c3ccc([N+](=O)[O-])cc3)[nH]c2=S)cc1	inactive

SMILES	Potency
CC(=O)c1ccc(OCCCC(=O)Nc2cc(S(=O)(=O)N3CCCCC3)ccc2C)cc1	inconclusive: 29.1 µM [falling, single point]
CCCCN1/C(=C/c2ccc3ccccc3[n+]2CC)Sc2ccccc21	inconclusive: 1.64 µM [falling, full curve]
Clc1ccccc1Cn1nnc2c(NCC3CC3)ncnc21	inconclusive: 32.6 µM [falling, single point]
C#CCn1cnc2c(cnn2-c2ccc(C)c(C)c2)c1=O	inconclusive: 11.6 µM [activator, partial curve]
CS(=O)(=O)N1CCN(c2ccccc2NC(=O)c2ccc(Br)o2)CC1	inconclusive: 13 µM [falling, partial curve, poor fit]
COc1ccc2cc(C(=O)N3CCN(c4ccccc4OC)CC3)[nH]c2c1	inconclusive: 32.6 µM [falling, single point]
Cc1cc(-c2nnc3n2N=C(c2ccc(F)cc2)CS3)n[nH]1	inconclusive: 0.731 µM [falling, full curve, poor fit]
Cc1ccc(NC(=O)CCN2C(=O)CSC2=O)c(C)c1	inconclusive: 5.8 µM [activator, partial curve, poor fit]
Cc1cc(S(=O)(=O)N2CCN(Cc3noc(CCC(=O)N4CCCCC4)n3)CC2)ccc1F	inactive
COc1cccc(NC(=O)COC(=O)c2cc(S(=O)(=O)N3CCOCC3)ccc2C)c1	inactive
Cc1c(CCNC=O)cc(C)c2c3c(oc12)CCCC3	inconclusive: 9.2 µM [activator, partial curve]
O=C(COc1ccccc1Cl)NCCCNC(=O)c1cnccn1	inconclusive: 29.1 µM [falling, single point]
O=C(Nc1ccc(-c2cn3ccsc3n2)cc1)c1ccc(F)c(S(=O)(=O)N2CCOCC2)c1	inconclusive: 29.1 µM [falling, single point]
Cc1ccc(-c2nc(CS(=O)CC(=O)NCc3ccc(Cl)cc3)c(C)o2)cc1 (configuration not stated)	inconclusive: 23.1 µM [falling, partial curve, poor fit]
CN1CCc2cc(O)c(O)cc2C(c2ccccc2)C1 (configuration not stated)	inactive
CC(C)c1ccc(S(=O)(=O)N2CCC(n3c(C(F)(F)F)nc4cccnc43)CC2)cc1	inactive
Cc1cc(F)ccc1NC(=O)c1cc(S(=O)(=O)N2CCc3ccccc32)cn1C	inconclusive: 23.1 µM [falling, partial curve, poor fit]
O=C(COC(=O)c1ccc2c(c1)S(=O)(=O)N=C1CCCCCN12)NCc1cccs1	inactive
CC(C)c1cccc(C(C)C)c1OC(=O)NC(=O)c1c(F)cccc1F	inactive
CCCn1c(=O)c(C(=O)NCc2cccnc2)c(O)c2ccccc21	inactive
COc1ccc(CN2CCN(C(C)C(=O)N(C)Cc3cccc(F)c3)CC2)cc1OC (configuration not stated)	inconclusive: 13 µM [falling, partial curve, poor fit]

3 entries from above, sorted by length of the SMILES, smallest number first.
SMILES	Potency
CNC(=O)C1(C(F)(F)F)C/C(=C/CCO)CCCO1 (configuration not stated)	inactive
COc1ccc(-n2ncc3c(NCC4CCCO4)ncnc32)cc1 (configuration not stated)	inconclusive: 3.66 µM [activator, full curve]
O=C(Nc1ccc(-c2cn3ccsc3n2)cc1)c1ccc(F)c(S(=O)(=O)N2CCOCC2)c1	inconclusive: 29.1 µM [falling, single point]
